Laboratory results published in paper PMC5636114 (PLoS ONE, 2017).
These are yes or no findings as the source states them, for the method shown. For part of these data: In cells and extracts the contact can be indirect. Some binding calls cover weakened binding; strength is not graded here.

Sequences of proteins named here, by UniProt entry; tags and fusion partners are left off. A change or cut given only in a name is not applied to a line headed by its entry. A line that says so, or that is headed by a name, gives the form on record, which may keep a tag or linker. Residues count along the entry.
UniProt P83369, residues 23-130: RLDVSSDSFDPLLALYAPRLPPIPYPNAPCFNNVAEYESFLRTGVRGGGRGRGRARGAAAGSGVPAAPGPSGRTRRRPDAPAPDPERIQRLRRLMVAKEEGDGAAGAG
FLASH NTD C54S/C83A/K88A/K92A/K95A without tag, co-expressed with His-tagged Lsm11 NTD (Q9UKL3, form named): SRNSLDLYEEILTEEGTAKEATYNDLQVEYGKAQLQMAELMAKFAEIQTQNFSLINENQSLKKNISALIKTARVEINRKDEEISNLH
FLASH NTD C54S/C83A/Y73A/L76A/Y80A without tag, co-expressed with His-tagged Lsm11 NTD (Q9UKL3, form named): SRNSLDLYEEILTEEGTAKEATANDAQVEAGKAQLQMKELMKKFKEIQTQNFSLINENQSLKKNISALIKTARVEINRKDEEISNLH

Tests used:
[1] = molecular target: Lsm11 NTD (residues 23-130), N-terminally hexahistidine-tagged (UniProt P83369); assay: pull-down; His-tagged Lsm11 NTD and untagged FLASH NTD co-expressed in E. coli (5 mL LB), co-purified on Ni-NTA agarose beads, SDS-PAGE
[2] = molecular target: Lsm11 NTD (residues 23-130), N-terminally hexahistidine-tagged (UniProt P83369); assay: AUC; sedimentation velocity (42,000 rpm) and equilibrium, 20 C, 20 mM Tris (pH 8.5), 250 mM NaCl, 5 mM DTT (low-salt condition), 0.05 to 1 mg/ml (complex also 8 mg/ml); global fit by SEDPHAT: monomer-dimer self-association (dimer to monomers) or A + B <-> AB hetero-association; both purified

| binding [1] | binding [2] | Substance |
| --- | --- | --- |
| binds |  | FLASH NTD C54S/C83A/K88A/K92A/K95A without tag, co-expressed with His-tagged Lsm11 NTD (from UniProt Q9UKL3 51-137) (domain or fragment) |
| binds |  | FLASH NTD C54S/C83A/Y73A/L76A/Y80A without tag, co-expressed with His-tagged Lsm11 NTD (from UniProt Q9UKL3 51-137) (domain or fragment) |
|  | no binding (tested: 0.8 mg/ml) | Lsm11 NTD (residues 23-130), N-terminally hexahistidine-tagged (from UniProt P83369 23-130) (domain or fragment) |
